# ± gives the standard deviation of the averaged measurements. The entries are a selection whose mix differs from that of the whole data set. Single values are uncertain here, since repeats match poorly.
# Tested on: FaDu
# Experiment: mitochondrial oxygen consumption rate normalised to cell number, Z score over the library; higher = higher oxygen consumption (negative = OCR reduction)
# Conditions: treatment time 24 h, assay medium: 5 mM galactose, 5 mM pyruvate, 4 mM glutamine
# Experimental: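 Primary screen: FaDu cells were incubated 24 h with Pharmakon 1600 / TDI oncology set compounds at 2 or 10 uM. Mitochondrial-specific OCR (basal minus 2 uM antimycin A) was measured on a Seahorse XF96 in assay medium with 5 mM galactose, 5 mM pyruvate and 4 mM glutamine, then corrected for Hoechst cell number and expressed as a Z score […]. Compounds that cut cell number by >66% were excluded. Two repeats.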
Structure (SMILES),mitochondrial oxygen consumption rate normalised (2 µM),mitochondrial oxygen consumption rate normalised (10 µM)
CC1C=CC=CCCC=CC=CC=CC=CC(OC2OC(C)C(O)C(N)C2O)CC2OC(O)(CC(O)C(O)CCC(O)CC(O)CC(O)CC(=O)OC(C)C(C)C1O)CC(O)C2C(=O)O (stereo not drawn),-0.0561 ± 0.16,–
CC[N+]1(C)CCCC(OC(=O)C(O)(c2ccccc2)c2ccccc2)C1 (stereo not drawn),-0.0709 ± 0.41,–
c1ccc2c(c1)OCC(C1=NCCN1)O2 (stereo not drawn),0.0604 ± 0.02,–
CC(C)c1cccc(C(C)C)c1O,-0.258 ± 0.92,–
Oc1ccc2c3c1O[C@H]1[C@@H](O)CC[C@@]4(O)[C@@H](C2)N(CC2CCC2)CC[C@]314,-0.644 ± 0.52,–
CC(=O)O[C@H]1CC[C@@]2(C)C(=CC[C@@H]3[C@@H]2CC[C@]2(C)C(=O)CC[C@@H]32)C1,1.44 ± 0.05,–
CN1C[C@H](CNC(=O)OCc2ccccc2)C[C@@H]2c3cccc4c3c(cn4C)C[C@H]21,0.0951 ± 0.8,–
O=C(CCCN1CCC2(CC1)C(=O)NCN2c1ccccc1)c1ccc(F)cc1,0.165 ± 0.47,–
O=[N+]([O-])O[C@H]1CO[C@H]2[C@@H]1OC[C@H]2O[N+](=O)[O-],0.0524 ± 1.2,–
NCC1(CC(=O)O)CCCCC1,-0.221 ± 1.3,–
O=c1cccc2n1C[C@@H]1CNC[C@H]2C1,-0.274 ± 0.54,–
CC(O)(CS(=O)(=O)c1ccc(F)cc1)C(=O)Nc1ccc(C#N)c(C(F)(F)F)c1 (stereo not drawn),0.021 ± 0.069,–
CCOC(=O)c1cncn1[C@H](C)c1ccccc1,0.285 ± 0.28,–
CNC(=O)Oc1cccc2ccccc12,-0.435 ± 0.32,–
COc1ccc2c(c1OC)C(=O)O[C@@H]2[C@H]1c2cc3c(cc2CCN1C)OCO3,-0.212 ± 0.36,–
Cc1cc(C(C#N)c2ccc(Cl)cc2)c(Cl)cc1NC(=O)c1cc(I)cc(I)c1O (stereo not drawn),1.1 ± 1.2,–
O=C(O)c1nn(Cc2ccc(Cl)cc2Cl)c2ccccc12,0.46 ± 0.18,–
C[C@@H]1C[C@@H]([C@H](O)CC2CC(=O)NC(=O)C2)C(=O)[C@@H](C)C1,0.681 ± 0.78,–
CCC1(C2=NCCN2)Cc2ccccc2O1 (stereo not drawn),0.0626 ± 0.083,–
CC[C@@H](CO)NC(=O)[C@@H]1C=C2c3cccc4[nH]cc(c34)C[C@H]2N(C)C1,-0.807 ± 1.6,–
CCCCOC(=O)c1ccccc1C(=O)OCCCC,-0.381 ± 0.093,–
O=C1CCO1,0.271 ± 0.26,–
CCC1(CC)C(=O)NC(=O)NC1=O,-0.704 ± 0.17,–
CC([C@H](O)c1ccccc1)N(C)C (stereo partly drawn),-1.13 ± 0.32,–
COc1ccc(OC)c(C(O)C(C)N)c1 (stereo not drawn),-0.277 ± 0.036,–
C1CN1c1nc(N2CC2)nc(N2CC2)n1 [Triethylenemelamine],0.0985 ± 0.051,–

Structure (SMILES),mitochondrial oxygen consumption rate normalised (2 µM),mitochondrial oxygen consumption rate normalised (10 µM)
CCC(=O)O[C@H]1CC[C@H]2[C@@H]3CCC4=CC(=O)CC[C@]4(C)[C@H]3CC[C@]12C,-0.966 ± 0.19,–
Oc1ccc(Cl)cc1Cc1cc(Cl)ccc1O,1.71 ± 2.2,–
Cl[C@H]1[C@H](Cl)[C@@H](Cl)[C@@H](Cl)[C@H](Cl)[C@H]1Cl,-0.465 ± 0.86,–
CC(O)CN1CCN(CC(=O)[O-])CCN(CC(=O)[O-])CCN(CC(=O)[O-])CC1.[Gd+3] (stereo not drawn),0.117 ± 0.9,–
CCCC(C)(COC(N)=O)COC(=O)NC(C)C (stereo not drawn),-0.256 ± 1.4,–
COC(C)(C)CCC[C@H](C)C/C=C/C(C)=C/C(=O)OC(C)C,0.0675 ± 0.28,0.396 ± 0.11
C[N+]1(C)CCCC(OC(=O)C(O)(c2ccccc2)c2ccccc2)C1 (stereo not drawn),-1.16 ± 0.28,–
C#CC(C)(O)CC (stereo not drawn),0.265 ± 1.8,–
N[C@@H]1C[C@H]1c1ccccc1.N[C@H]1C[C@@H]1c1ccccc1,-0.756 ± 0.18,–
CCOP(=S)(OCC)Oc1ccc2c(C)c(Cl)c(=O)oc2c1,0.72 ± 1.2,–
CCOc1cc(C=O)ccc1O,0.328 ± 0.48,–
C=C1C[C@@H]2[C@H](CC[C@]3(C)C(=O)CC[C@@H]23)[C@@]2(C)C=CC(=O)C=C12,-1.5 ± 1.2,–
C=C1C[C@@H]2[C@H](CC[C@]3(C)C(=O)CC[C@@H]23)[C@@]2(C)C=CC(=O)C=C12 [Exemestane],0.522 ± 0.39,–
CCCCCCCCCCCCCCCC[n+]1ccccc1,-6.43 ± 0.34,–
C=CCC1(C(C)CCC)C(=O)NC(=S)NC1=O (stereo not drawn),-0.207 ± 0.7,–
CCOP(=S)(OCC)Oc1nc(Cl)c(Cl)cc1Cl,-0.136 ± 0.082,–
c1ccc2c(c1)sc1ccccc12,-0.378 ± 0.72,–
O=P1(N(CCCl)CCCl)NCCCO1 (stereo not drawn) [Cyclophosphamide],1.12 ± 0.025,–
O=P1(N(CCCl)CCCl)NCCCO1 (stereo not drawn),-0.277 ± 1.6,–
CN1C(=O)CCS(=O)(=O)C1c1ccc(Cl)cc1 (stereo not drawn),0.149 ± 0.66,–
O=C(NC(O)C(Cl)(Cl)Cl)NC(O)C(Cl)(Cl)Cl (stereo not drawn),0.351 ± 0.63,–
CC(=O)NC1CCSC1=O (stereo not drawn),-1.06 ± 0.04,0.219 ± 0.66
CNC(=O)Oc1ccccc1OC(C)C,-1 ± 0.054,–
CNCC(O)c1ccc(O)cc1 (stereo not drawn),-0.607 ± 0.15,–
CC(C)C[C@H]1C(=O)N2CCC[C@H]2[C@]2(O)O[C@](NC(=O)[C@@H]3C=C4c5cccc6[nH]c(Br)c(c56)C[C@H]4N(C)C3)(C(C)C)C(=O)N12,-0.175 ± 0.089,–

# Look-ups from the results shown.
# Entry for O=P1(N(CCCl)CCCl)NCCCO1 (stereo not drawn) [Cyclophosphamide] under mitochondrial oxygen consumption rate normalised (2 µM): 1.12 ± 0.025
# Entry for CCOP(=S)(OCC)Oc1ccc2c(C)c(Cl)c(=O)oc2c1 under mitochondrial oxygen consumption rate normalised (2 µM): 0.72 ± 1.2
# Entry for C=C1C[C@@H]2[C@H](CC[C@]3(C)C(=O)CC[C@@H]23)[C@@]2(C)C=CC(=O)C=C12 [Exemestane] under mitochondrial oxygen consumption rate normalised (2 µM): 0.522 ± 0.39

# — the supplement of paper PMC4962491
